Data published in the supplement of paper PMC6078165.

Test system: Hs578T
Assay: relative JC-1 red fluorescence (viability) vs pre-drug, coculture with fibroblast (fraction); higher = more viable cancer cells
Details: 100 µM
Method: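 JC-1 labelled TNBC cells cocultured 1:1 (1,500 cells each) with CellTrace Violet stained primary or stromal fibroblasts in 384-well plates in FluoroBrite medium, treated with one of 42 anticancer drugs at 0.1, 1, 10 or 100 uM. JC-1 red fluorescence (mitochondrial integrity in cancer cells only) was read by plate reader every 8 h for 72 h. Values are normalised to each well's pre-drug value. The stock of one drug was tenfold lower, so its dose labels may be too high.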

CC(C)(C#N)c1cc(Cn2cncn2)cc(C(C)(C)C#N)c1 [Anastrozole]
Details	relative JC-1 red fluorescence
8 h	0.905
16 h	0.8117
24 h	0.777
32 h	0.745
40 h	0.695
48 h	0.656
56 h	0.643
64 h	0.612
72 h	0.6

relative JC-1 red fluorescence
Details	8 h	16 h	24 h	32 h	40 h	48 h	56 h	64 h	72 h
coculture fibroblast: C12385	0.842	0.76571	0.718	0.65	0.603	0.575	0.548	0.531	0.522
coculture fibroblast: H6013	0.9085	0.848	0.82	0.798	0.763	0.743	0.72	0.704	0.667
coculture fibroblast: H6019	0.806	0.733	0.702	0.617	0.575	0.541	0.508	0.476	0.447
coculture fibroblast: H6076	0.914	0.8578	0.831	0.819	0.797	0.794	0.774	0.766	0.764
coculture fibroblast: H6231	0.894	0.835	0.802	0.769	0.719	0.703	0.668	0.644	0.633
coculture fibroblast: HADF	0.929	0.9	0.876	0.838	0.817	0.795	0.753	0.743	0.7
coculture fibroblast: HCFa	0.881	0.866	0.848	0.817	0.7586	0.749	0.717	0.709	0.681
coculture fibroblast: HCPF	0.9306	0.862	0.81	0.7704	0.7153	0.6903	0.6716	0.6232	0.6
coculture fibroblast: HHSteC	0.903	0.8301	0.7814	0.738	0.684	0.653	0.614	0.592	0.548
coculture fibroblast: HMF	0.92	0.854	0.797	0.773	0.723	0.7	0.669	0.64	0.615
coculture fibroblast: HPFa	0.9288	0.833	0.777	0.738	0.704	0.664	0.616	0.585	0.538
coculture fibroblast: HUF	0.8599	0.774	0.7452	0.66281	0.608	0.573	0.534	0.507	0.492
coculture fibroblast: Hs27A	0.906	0.866	0.837	0.822	0.777	0.774	0.749	0.754	0.712
coculture fibroblast: Hs343T	0.94	0.849	0.824	0.808	0.745	0.722	0.692	0.665	0.644
coculture fibroblast: WS1	0.8193	0.75	0.69	0.611	0.559	0.539	0.513	0.493	0.478

Values are relative to the signal before dosing, not to a vehicle control; the signal also falls without drug.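 Labels refer to human fibroblasts, largely primary: uterine (C12385, HUF), lung (H6013), bone (Hs27A), adrenal (HADF), skin (WS1), plus mammary HMF and breast cancer-associated Hs343T. Cancer lines are basal-like or mesenchymal-like triple-negative breast cancer. The paper counts as hits responses shifting over 3x the replicate standard deviation. The tissue of the other fibroblasts is not given here.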
